PubChem BioAssay AID1259254, NCATS, 2017

Purpose: 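Finding genes that stop cells copying their DNA twice in one cycle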 (primary screen)
System: human HCT116 colorectal cancer cells
Reagents: single siRNA against human genes
Duration: 3 days
Measurement: 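Imaged Hoechst DNA stain sorts each cell into a cycle phase by DNA amount; per plate, G2 fraction set to 0% for non-targeting and 100% for GMNN siRNA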
Scale: G2 robust z-score: higher = more G2 cells, more excess DNA replication
Active means: 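An siRNA counts as active if its G2 robust z-score lies at least 5 MADs above the screen median; here such calls match roughly 38% of GMNN control or more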
The whole screen tested about 59,000 reagents; this is an unselected part. In the full data, about 1,550 (2.6%) got an active call. 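G2 share is only a proxy for re-replication; each gene was hit by three separate siRNAs, and active genes were retested.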 Reagents against one gene are numbered here. Not all columns of the deposit are shown. No sequences are given here. Not given: the amount of reagent.

KBTBD11 #1 — G2 robust z-score = -0.365; Call = inactive
KBTBD11 #2 — G2 robust z-score = 0.586; Call = inactive
KBTBD11 #3 — G2 robust z-score = -0.00963; Call = inactive
NMS #1 — G2 robust z-score = -0.878; Call = inactive
NMS #2 — G2 robust z-score = -0.706; Call = inactive
NMS #3 — G2 robust z-score = -0.645; Call = inactive

2 of these entries in another layout:
target,siRNA no.,G2 robust z-score,Call
KBTBD11,3,-0.00963,inactive
NMS,1,-0.878,inactive

Additional reagents follow.
OR10A4 #1 — G2 robust z-score = 1.6; Call = inactive
OR10A4 #2 — G2 robust z-score = 1.18; Call = inactive
OR10A4 #3 — G2 robust z-score = -0.662; Call = inactive
RASA4CP #1 — G2 robust z-score = 0.857; Call = inactive
RASA4CP #2 — G2 robust z-score = -1.49; Call = inactive
RASA4CP #3 — G2 robust z-score = -0.209; Call = inactive
